The values that follow come from PMC11695632.

No constants are given. Whether binding was seen depends on the method and setting. Binding seen in cells or lysates may run through a third protein. A yes stands for co-enrichment or nearness to the bait. Other partners may have been found. For some assays here: Sequences can lack the tags named with a protein.

The target in assay [1] is T1, Flag-tagged pantothenate kinase 4 (PanK4), wild type (mouse) (UniProt Q80YV4).
T1 sequence: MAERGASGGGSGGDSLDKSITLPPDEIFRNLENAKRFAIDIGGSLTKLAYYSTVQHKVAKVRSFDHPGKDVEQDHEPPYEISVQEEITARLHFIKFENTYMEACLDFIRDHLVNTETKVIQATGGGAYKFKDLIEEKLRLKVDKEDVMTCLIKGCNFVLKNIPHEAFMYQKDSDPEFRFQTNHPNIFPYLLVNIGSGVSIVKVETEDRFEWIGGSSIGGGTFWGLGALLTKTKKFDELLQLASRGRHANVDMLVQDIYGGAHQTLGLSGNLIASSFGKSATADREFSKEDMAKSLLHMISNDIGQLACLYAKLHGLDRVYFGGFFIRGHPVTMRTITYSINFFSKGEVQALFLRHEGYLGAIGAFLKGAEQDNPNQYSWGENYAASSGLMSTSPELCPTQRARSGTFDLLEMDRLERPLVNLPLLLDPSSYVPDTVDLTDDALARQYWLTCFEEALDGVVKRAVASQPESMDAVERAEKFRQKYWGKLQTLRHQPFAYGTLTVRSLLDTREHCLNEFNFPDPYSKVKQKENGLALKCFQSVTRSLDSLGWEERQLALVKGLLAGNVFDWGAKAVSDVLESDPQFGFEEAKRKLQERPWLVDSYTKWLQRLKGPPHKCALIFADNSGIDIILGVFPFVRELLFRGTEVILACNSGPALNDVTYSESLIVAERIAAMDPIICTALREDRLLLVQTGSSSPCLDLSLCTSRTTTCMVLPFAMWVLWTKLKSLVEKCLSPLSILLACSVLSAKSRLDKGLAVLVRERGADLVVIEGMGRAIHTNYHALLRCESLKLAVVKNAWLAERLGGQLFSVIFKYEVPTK
The assay can be described thus: affinity purification with mass spectrometry; anti-flag coated agarose beads, lysates (400 µg, n = 4) of TA muscle injected with rAAV6-PanK4, overnight at 4 °C; washed twice with 120 mM HEPES, 240 mM NaCl pH 7.4; eluted with laemmli buffer; pulldown from PanK4 KO muscle as negative control.

For assay [2], the target named is T2, pantothenate kinase 4 (PanK4), endogenous (mouse (endogenous in C57BL/6J TA muscle)) (UniProt Q80YV4).
T2 sequence: T1 sequence
The assay can be described thus: affinity purification with mass spectrometry; anti-PanK4 antibody on protein G agarose beads, lysates (400 µg, n = 2) of TA muscle injected with control rAAV6-MCS, overnight at 4 °C; washed twice with 120 mM HEPES, 240 mM NaCl pH 7.4; eluted with laemmli buffer; pulldown from PanK4 KO muscle as negative control.

B1: 3-hydroxybutyrate dehydrogenase 1 (BDH1) (enzyme, UniProt Q80XN0 47-343)
chain: ASQADAASGKAILITGCDSGFGFSLAKHLHSKGFLVFAGCLMKDKGDAGVKELDSLKSDRLRTIQLNVCNSEEVEKAVETIRSGLKDPEKGMWGLVNNAGISTFGEVEFTSMETYKEVAEVNLWGTVRTTKSFLPLLRRAKGRVVNISSMLGRMANPARSPYCITKFGIEAFSDCLRYEMHPLGVKVSVVEPGNFIAATSLYSPERIQAIAKKMWDDLPEVVRKDYGRKYFDEKIAKMETYCNSGSTDTSSVINAVTHALTAATPYTRYHPMDYYWWLRMQIMTHFPGAISDKIYIH
Turning to B1, the binding entry in assay [1] and in assay [2] was “binds” throughout.
